Some of the results follow.

Amino acid sequences for entries named in this document (tags omitted).
UniProt Q0JBA9, entry or part of it: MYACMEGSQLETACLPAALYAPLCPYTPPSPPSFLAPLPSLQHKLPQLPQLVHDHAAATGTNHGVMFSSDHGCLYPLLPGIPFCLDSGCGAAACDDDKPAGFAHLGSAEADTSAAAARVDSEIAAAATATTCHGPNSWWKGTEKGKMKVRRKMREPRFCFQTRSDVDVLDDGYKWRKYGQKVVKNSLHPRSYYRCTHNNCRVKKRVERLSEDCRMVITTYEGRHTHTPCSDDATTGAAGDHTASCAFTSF

This assay deals with OsWRKY34 (Oryza sativa, UniProt Q0JBA9 1-250). The assay can be described thus: protein-binding microarray (RPBM); PBS, 2% BSA, 51.3 ng/ul salmon testes DNA, 50 uM zinc acetate, 200 nM TF, 25 C, 1 h; high values mean tight binding. As to conditions: protein: recombinant; tags: N-terminal polyhistidine and DsRed monomer fusion (pET32a); label: CyDye5-dUTP incorporated in the synthesized complementary strand; 3' TTTTT single-stranded linker to array surface; dsDNA, one strand shown. A digest of the protocol: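 Binding signal here means per-feature fluorescence intensity in arbitrary units. The values were read on an Axon 4000B scanner after a custom Agilent array, double-stranded by primer extension with Cy5-dUTP, was incubated with 200 nM protein at 25 °C for 1 h in PBS with 2% BSA, salmon testes DNA and 50 µM zinc acetate, then washed. The proteins were transcription factors with an N-terminal polyhistidine tag and DsRed, expressed in E. coli BL21-CodonPlus and purified on Ni–NTA.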
Regarding “TCGTACTGCCCAATAATCTGTCTATTTGAATATCATGTCCCGGAGTCACCTAGTGCAG”, the binding signal is 9260 fluorescence intensity (a.u.).
In the case of “ATACAATTAATGCATGATCCCACCTATCATACACACATTACGGAGTCACCTAGTGCAG”, the binding signal is 8080 fluorescence intensity (a.u.).
In the case of “GAAACCCATGGTTGGGCGGGTTATCCTCTTGCTCTTGCCTCGGAGTCACCTAGTGCAG”, the binding signal was 10100 fluorescence intensity (a.u.).
On to “TACACTCAGAAAATGTCTACATGTCATCTGCACCTCTCCACGGAGTCACCTAGTGCAG”, for which the binding signal was 8040 fluorescence intensity (a.u.).
As for “TATGAAGTTGATTTTGTGGATTTTTTCATCGTGATTTATTCGGAGTCACCTAGTGCAG”, the binding signal was 8890 fluorescence intensity (a.u.).
On to “GTCTTCGTCCTATGTGGTAGTCTCAGCTCCTCAAACTAGTCGGAGTCACCTAGTGCAG”, for which the binding signal was 8760 fluorescence intensity (a.u.).
Regarding “CACCGCTCCCCGCCGGCCGTTGTCCGTCTCTCTCGCCGCACGGAGTCACCTAGTGCAG”, the binding signal is 8200 fluorescence intensity (a.u.).
Turning to “TGTTTTTTTTGCCTTTTACTGTATCTATCAAATTTTAATTCGGAGTCACCTAGTGCAG”, the binding signal is 8970 fluorescence intensity (a.u.).
“ATTTTTCCATGCAATTTTAGCTGTCTTTATCAAAGCTAATCGGAGTCACCTAGTGCAG”: the binding signal is 10300 fluorescence intensity (a.u.).
The result for “GGGCCCCAGTCAGGGTGCGGGGCCACGGAGGGGTCGGGGACGGAGTCACCTAGTGCAG” reads 9260 fluorescence intensity (a.u.); that for “AAATTAACATGGGTGCTTAGCTGTGTTGTTCGCTTGCATTCGGAGTCACCTAGTGCAG”, 8710 fluorescence intensity (a.u.); that for “AAACTGCCTTTGCTTCCATCGCCAACTAACTTAACCATTTCGGAGTCACCTAGTGCAG”, 9340 fluorescence intensity (a.u.).
Consider “GCCTGGATCCGGGTGCGTTTTTCTTTTTTTTCGCCATTTCCGGAGTCACCTAGTGCAG”, for which the binding signal was 13600 fluorescence intensity (a.u.).
Take “CTTAGCTGTTCTTGTGTAAGTACAATCATTGTTCTCCTCACGGAGTCACCTAGTGCAG”: the binding signal is 9970 fluorescence intensity (a.u.).
As to “AGTTTTGATTGTTTTGAATACCTGGACTCTCTCACTATATCGGAGTCACCTAGTGCAG”, the binding signal is 9440 fluorescence intensity (a.u.).
The result for “CCCCGATGGGCGCCGCCGCCACCCCGTTCCTCCGGAGCTCCGGAGTCACCTAGTGCAG” reads 10400 fluorescence intensity (a.u.).
The result for “GTCCAACACCACACCACACTCCCGCACCCACATGTCTCGCCGGAGTCACCTAGTGCAG” reads 8600 fluorescence intensity (a.u.); that for “ACATATTTGCCTCGTTTTTGAATTCCTTGGAGATAGCTTACGGAGTCACCTAGTGCAG”, 8150 fluorescence intensity (a.u.).
As for “GAATTCATAAGTATGTGTGTGTGTTTGTGTGGACAAGATTCGGAGTCACCTAGTGCAG”, the binding signal was 9850 fluorescence intensity (a.u.).
For the sequence “ATATAAAAAAATCATTACGCTCATTTTTTTTCTCTTATATCGGAGTCACCTAGTGCAG”, the binding signal is 8650 fluorescence intensity (a.u.).
“TCCGTCCTCGTCAAGTCGTCACGGTCCTCACGGCTTTTTCCGGAGTCACCTAGTGCAG”: the binding signal was 12900 fluorescence intensity (a.u.).
“CGTCCGCCCGAAGCCACCGCCACACCGGCCGCCTCTTCCTCGGAGTCACCTAGTGCAG”: the binding signal is 11200 fluorescence intensity (a.u.).
As to “CTGTATGTTACATCCTCATTTTTATCGGTCAAGATCATCCCGGAGTCACCTAGTGCAG”, the binding signal is 10200 fluorescence intensity (a.u.).

The values above are taken from publication PMC7819943, “Rice protein-binding microarrays: a tool to detect cis-acting elements near promoter regions in rice”.
